Results are given in words; binding and its absence hold for the method and conditions named. Some binding calls cover weakened binding; strength is not graded here. Where a sequence is shown, tags or fusion partners need not be part of it.
T1: factor XIIa (UniProt P00748 20-615, limits assumed)
T1 construct: also called fXIIa
T1 sequence (looked up): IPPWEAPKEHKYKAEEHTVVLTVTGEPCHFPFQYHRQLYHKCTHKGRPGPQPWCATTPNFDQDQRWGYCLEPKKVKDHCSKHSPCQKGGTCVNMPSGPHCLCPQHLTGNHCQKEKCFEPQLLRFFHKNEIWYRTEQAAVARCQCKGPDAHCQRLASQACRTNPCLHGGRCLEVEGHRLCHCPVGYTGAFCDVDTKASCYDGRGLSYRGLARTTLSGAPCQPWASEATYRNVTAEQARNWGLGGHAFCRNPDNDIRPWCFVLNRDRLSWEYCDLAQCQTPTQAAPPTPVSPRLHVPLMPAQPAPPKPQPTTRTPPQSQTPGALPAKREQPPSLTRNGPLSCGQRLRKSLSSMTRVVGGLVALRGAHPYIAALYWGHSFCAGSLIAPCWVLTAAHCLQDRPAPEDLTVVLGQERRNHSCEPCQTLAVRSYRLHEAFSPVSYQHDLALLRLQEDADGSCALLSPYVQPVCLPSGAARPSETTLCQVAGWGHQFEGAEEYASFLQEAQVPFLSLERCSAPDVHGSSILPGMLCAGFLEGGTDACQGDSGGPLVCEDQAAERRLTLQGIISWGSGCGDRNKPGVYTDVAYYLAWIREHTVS


Biological target: T1, factor XIIa
Test: chromogenic protease inhibition test in buffer

Row | binding | Binder
1 | binds | native infestin-4, fusion protein with thioredoxin I E. coli containing polyhistidine clusters (other, It says MutB differs from it at positions 9, 12 and 14 only; also called Inf4; not shown: thioredoxin I of E. coli, fusion partner; polyhistidine clusters) EVRNPCACFRNYVPVCGSDGKTYGNPCMLNCAAQTKVPGLKLVHEGRCQRSNVEQF
2 | binds | infestin-4 mutant MutB, fusion protein with thioredoxin I E. coli containing polyhistidine clusters (protein, not shown: large carriers; small tags and cut ends) EVRNPCACTRNFVAVCGSDGKTYGNPCMLNCAAQTKVPGLKLVHEGRCQRSNVEQF
